The text below walks through data of paper PMC11997035.

Sequences of proteins named here, by UniProt entry; tags and fusion partners are left off. Residues count along the entry.
UniProt P04439, residues 25-365: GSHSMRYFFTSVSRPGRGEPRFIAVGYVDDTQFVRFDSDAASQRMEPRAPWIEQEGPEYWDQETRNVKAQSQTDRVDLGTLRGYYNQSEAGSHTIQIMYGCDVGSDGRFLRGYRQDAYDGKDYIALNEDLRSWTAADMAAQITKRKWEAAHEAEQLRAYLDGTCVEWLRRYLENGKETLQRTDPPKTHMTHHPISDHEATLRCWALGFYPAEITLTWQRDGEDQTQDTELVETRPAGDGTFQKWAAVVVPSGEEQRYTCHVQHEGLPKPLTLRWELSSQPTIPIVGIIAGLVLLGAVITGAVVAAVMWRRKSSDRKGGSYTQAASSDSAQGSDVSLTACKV
UniProt P61006: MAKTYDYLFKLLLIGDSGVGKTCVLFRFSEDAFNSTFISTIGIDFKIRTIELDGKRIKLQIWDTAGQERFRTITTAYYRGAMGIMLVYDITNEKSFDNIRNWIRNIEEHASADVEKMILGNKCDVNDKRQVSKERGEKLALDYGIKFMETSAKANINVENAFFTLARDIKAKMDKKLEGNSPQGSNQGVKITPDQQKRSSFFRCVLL
UniProt Q15836: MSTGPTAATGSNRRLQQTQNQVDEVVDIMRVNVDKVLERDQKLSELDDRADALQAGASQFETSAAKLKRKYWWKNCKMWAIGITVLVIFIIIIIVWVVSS

For assay [1], the target named is T1, Flag-HA-tagged hMGAT1 (human) (UniProt P26572).
T1 sequence: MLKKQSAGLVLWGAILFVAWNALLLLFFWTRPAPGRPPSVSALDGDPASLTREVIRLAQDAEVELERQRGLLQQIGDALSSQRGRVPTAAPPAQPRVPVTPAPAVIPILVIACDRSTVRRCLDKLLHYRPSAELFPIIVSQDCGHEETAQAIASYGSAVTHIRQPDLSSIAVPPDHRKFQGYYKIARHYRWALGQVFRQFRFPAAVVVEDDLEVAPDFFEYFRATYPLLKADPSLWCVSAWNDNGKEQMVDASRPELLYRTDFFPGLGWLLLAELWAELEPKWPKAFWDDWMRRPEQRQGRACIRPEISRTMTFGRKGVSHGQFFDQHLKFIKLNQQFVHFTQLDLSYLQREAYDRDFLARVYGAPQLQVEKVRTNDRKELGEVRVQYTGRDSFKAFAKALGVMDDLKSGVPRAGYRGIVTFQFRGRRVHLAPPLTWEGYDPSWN
Kind of assay: affinity purification with mass spectrometry; Flag/HA-MGAT1 from MDA-MB468 lysate (1% NP-40 buffer) on Flag-M2 beads, washed with TBST, eluted with 3 × Flag peptide; WT MDA-MB468 as control.

For assay [2], the target named is T2, CD73 (bait for binding partners in TNBC cells) (human) (UniProt P21589).
T2 sequence: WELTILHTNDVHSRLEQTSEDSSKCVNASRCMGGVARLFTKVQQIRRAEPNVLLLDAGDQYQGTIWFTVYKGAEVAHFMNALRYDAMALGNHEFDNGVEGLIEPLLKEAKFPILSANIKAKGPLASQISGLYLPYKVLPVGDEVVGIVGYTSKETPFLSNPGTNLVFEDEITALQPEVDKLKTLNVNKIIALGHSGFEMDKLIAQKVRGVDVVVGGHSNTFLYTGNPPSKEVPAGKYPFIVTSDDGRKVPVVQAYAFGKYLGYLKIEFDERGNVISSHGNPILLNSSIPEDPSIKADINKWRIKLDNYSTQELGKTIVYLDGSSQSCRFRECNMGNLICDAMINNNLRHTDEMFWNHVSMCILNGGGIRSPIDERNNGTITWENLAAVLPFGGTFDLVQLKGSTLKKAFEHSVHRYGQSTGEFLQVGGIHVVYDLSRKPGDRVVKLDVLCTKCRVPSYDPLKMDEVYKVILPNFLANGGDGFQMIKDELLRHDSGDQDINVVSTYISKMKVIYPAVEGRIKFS
As to the kind of experiment: affinity purification with mass spectrometry; mass spectrometry of CD73 binding partners in TNBC cells.

Results are given in words; binding and its absence hold for the method and conditions named. In cells and extracts the contact can be indirect. A yes stands for co-enrichment or nearness to the bait. Other partners may have been found. For some assays here: Tags and fused reporters may be left off the sequences shown.

On to HLA-A (from UniProt P04439 25-365), for which the binding result in assay [1] was “binds”.

Take HLA-B (from UniProt P01889 25-362): the binding entry in assay [1] is given as “binds”.

In the case of RAB8A (from UniProt P61006 1-207), the binding entry in assay [2] is on record as “binds”.

For VAMP3 (from UniProt Q15836 1-100), the binding entry in assay [2] is recorded as “binds”.

B1: RAB13 (protein, UniProt P51153 1-203)
chain: MAKAYDHLFKLLLIGDSGVGKTCLIIRFAEDNFNNTYISTIGIDFKIRTVDIEGKKIKLQVWDTAGQERFKTITTAYYRGAMGIILVYDITDEKSFENIQNWMKSIKENASAGVERLLLGNKCDMEAKRKVQKEQADKLAREHGIRFFETSAKSSMNVDEAFSSLARDILLKSGGRRSGNGNKPPSTDLKTCDKKNTNKCSLG
Consider B1, for which, in assay [2], the binding result is on record as “binds”.
